Assay results taken from patent EP2178888B1, “PROTEASOME INHIBITORS” (Millennium Pharmaceuticals, Inc., priority 2007, dated 2009).
pIC50: −log10 of the molar value. Some entries share one result that the patent states for a list of compounds.

Protein sequences, listed by entry. Tags and fused reporters are not part of them. Lines headed by an entry give the natural chain unless they say otherwise; changes in a name come on top.
UniProt P20618: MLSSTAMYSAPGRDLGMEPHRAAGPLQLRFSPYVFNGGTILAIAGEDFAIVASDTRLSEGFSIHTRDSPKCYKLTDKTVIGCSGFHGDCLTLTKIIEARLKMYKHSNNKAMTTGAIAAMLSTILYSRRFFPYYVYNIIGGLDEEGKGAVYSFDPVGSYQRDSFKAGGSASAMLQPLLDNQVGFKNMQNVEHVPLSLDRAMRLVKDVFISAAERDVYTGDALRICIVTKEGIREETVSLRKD
UniProt P28074: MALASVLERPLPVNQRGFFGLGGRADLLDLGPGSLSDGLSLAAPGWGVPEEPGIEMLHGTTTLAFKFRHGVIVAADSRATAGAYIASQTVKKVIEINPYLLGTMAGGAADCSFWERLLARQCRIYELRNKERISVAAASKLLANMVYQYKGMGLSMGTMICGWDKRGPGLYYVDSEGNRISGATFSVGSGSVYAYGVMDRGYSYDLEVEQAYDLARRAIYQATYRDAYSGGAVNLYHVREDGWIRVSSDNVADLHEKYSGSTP

What follows are compounds tested against T1, human 20S proteasome (Homo sapiens, UniProt P20618+P28074) (assay: 20S Proteasome Assay). Details: Ac-WLA-AMC (β5 selective substrate) 15 µM, human PA28 activator 12 nM, human 20S proteasome 0.25 nM, 37 °C, pH7.4.
T1 construct: purchased Boston Biochem
Type: biochemical
`CC(C)C[C@H](NC(=O)CNC(=O)c1cccc(F)c1F)B(O)O` [Compound I-1, [(1R)-1-({[(2,3-difluorobenzoyl)amino]acetyl}amino)-3-methylbutyl]boronic acid] showed a pIC50 of over 7.30.
For `CC(C)C[C@H](NC(=O)CNC(=O)c1cc(Cl)ccc1F)B(O)O` [Compound I-2, [(1R)-1-({[(5-chloro-2-fluorobenzoyl)amino]acetyl}amino)-3-methylbutyl]boronic acid], the pIC50 was over 7.30.
With `CC(C)C[C@H](NC(=O)CNC(=O)c1cc(F)cc(F)c1)B(O)O` [Compound I-3, [(1R)-1-({[(3,5-difluorobenzoyl)amino]acetyl}amino)-3-methylbutyl]boronic acid] the pIC50 was over 7.30.
`CC(C)C[C@H](NC(=O)CNC(=O)c1cc(F)ccc1F)B(O)O` [Compound I-4, [(1R)-1-({[(2,5-difluorobenzoyl)amino]acetyl}amino)-3-methylbutyl]boronic acid] showed a pIC50 of over 7.30.
`CC(C)C[C@H](NC(=O)CNC(=O)c1ccccc1Br)B(O)O` [Compound I-5, [(1R)-1-({[(2-bromobenzoyl)amino]acetyl}amino)-3-methylbutyl]boronic acid] was tested, and the pIC50 was over 7.30.
In the case of `CC(C)C[C@H](NC(=O)CNC(=O)c1ccccc1F)B(O)O` [Compound I-6, [(1R)-1-({[(2-fluorobenzoyl)amino]acetyl}amino)-3-methylbutyl]boronic acid], the pIC50 was over 7.30.
In the case of `CC(C)C[C@H](NC(=O)CNC(=O)c1cc(F)ccc1Cl)B(O)O` [Compound I-7, [(1R)-1-({[(2-chloro-5-fluorobenzoyl)amino]acetyl}amino)-3-methylbutyl]boronic acid], the pIC50 was over 7.30.
For `CC(C)C[C@H](NC(=O)CNC(=O)c1ccc(F)cc1)B(O)O` [Compound I-8, [(1R)-1-({[(4-fluorobenzoyl)amino]acetyl}amino)-3-methylbutyl]boronic acid], the pIC50 was over 7.30.
`CC(C)C[C@H](NC(=O)CNC(=O)c1ccc(F)c(F)c1)B(O)O` [Compound I-9, [(1R)-1-({[(3,4-difluorobenzoyl)amino]acetyl}amino)-3-methylbutyl]boronic acid] showed a pIC50 of over 7.30.
`CC(C)C[C@H](NC(=O)CNC(=O)c1cccc(Cl)c1)B(O)O` [Compound I-10, [(1R)-1-({[(3-chlorobenzoyl)amino]acetyl}amino)-3-methylbutyl]boronic acid] showed a pIC50 of over 7.30.
`CC(C)C[C@H](NC(=O)CNC(=O)c1ccc(Cl)c(Cl)c1)B(O)O` [Compound I-12, [(1R)-1-({[(3,4-dichlorobenzoyl)amino]acetyl}amino)-3-methylbutyl]boronic acid] was tested, and the pIC50 was over 7.30.
With `CC(C)C[C@H](NC(=O)CNC(=O)c1cccc(F)c1)B(O)O` [Compound I-13, [(1R)-1-({[(3-fluorobenzoyl)amino]acetyl}amino)-3-methylbutyl]boronic acid] the pIC50 was over 7.30.
`CC(C)C[C@H](NC(=O)CNC(=O)c1ccc(F)cc1Cl)B(O)O` [Compound I-14, [(1R)-1-({[(2-chloro-4-fluorobenzoyl)amino]acetyl}amino)-3-methylbutyl]boronic acid] showed a pIC50 of over 7.30.
`CC(C)C[C@H](NC(=O)CNC(=O)c1cccc(Cl)c1Cl)B(O)O` [Compound I-15, [(1R)-1-({[(2,3-dichlorobenzoyl)amino]acetyl}amino)-3-methylbutyl]boronic acid] gave a pIC50 of over 7.30.
In the case of `CC(C)C[C@H](NC(=O)CNC(=O)c1ccccc1Cl)B(O)O` [Compound I-16, [(1R)-1-({[(2-chlorobenzoyl)amino]acetyl}amino)-3-methylbutyl]boronic acid], the pIC50 was over 7.30.
For `CC(C)C[C@H](NC(=O)CNC(=O)c1ccc(F)cc1F)B(O)O` [Compound I-17, [(1R)-1-({[(2,4-difluorobenzoyl)amino]acetyl}amino)3-methylbutyl]boronic acid], the pIC50 was over 7.30.
Work on `CC(C)C[C@H](NC(=O)CNC(=O)c1ccc(Cl)cc1F)B(O)O` [Compound I-18, [(1R)-1-({[(4-chloro-2-fluorobenzoyl)amino]acetyl}amino)-3-methylbutyl]boronic acid] yielded a pIC50 of over 7.30.
For `CC(C)C[C@H](NC(=O)CNC(=O)c1ccc(Cl)cc1)B(O)O` [Compound I-19, [(1R)-1-({[(4-chlorobenzoyl)amino]acetyl}amino)-3-methylbutyl]boronic acid], the pIC50 was over 7.30.
For `CC(C)C[C@H](NC(=O)CNC(=O)c1ccc(Cl)cc1Cl)B(O)O` [Compound I-20, [(1R)-1-({[(2,4-dichlorobenzoyl)amino]acetyl}amino)-3-methylbutyl]boronic acid], the pIC50 was over 7.30.
For `CC(C)C[C@H](NC(=O)CNC(=O)c1cc(Cl)cc(Cl)c1)B(O)O` [Compound I-21, [(1R)-1-({[(3,5-dichlorobenzoyl)amino]acetyl}amino)-3-methylbutyl]boronic acid], the pIC50 was over 7.30.
